Assay results as given in the supplement of paper PMC4604168 (melanoma cell lines).
The other results are listed elsewhere or left out. Single values are uncertain, as repeats are few or missing.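 Cells were imaged in 1,536-well plates, and nuclei stained with an antibody against cleaved PARP were counted against all DNA-stained nuclei to give the apoptosis fraction. Screening doses were chosen to leave most cells alive, and resting and induced cleaved-PARP levels differ strongly between cell lines.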

Experiments:
Assay in all cases: cleaved PARP positive nuclei fraction relative to DMSO control; melanoma cells; higher = more apoptosis
Details in all cases: library dose: low library concentration; 72 h
501Mel = test system: 501Mel
A101D = test system: A101D
A2058 = test system: A2058
C32 = test system: C32
CBRC008 = test system: CBRC008 (line from a melanoma biopsy)
CBRC014 = test system: CBRC014 (line from a melanoma biopsy)
CBRC016 = test system: CBRC016 (line from a melanoma biopsy)
CBRC017 = test system: CBRC017 (line from a melanoma biopsy)

Compound | cleaved PARP positive nuclei fraction (501Mel) | cleaved PARP positive nuclei fraction (A101D) | cleaved PARP positive nuclei fraction (A2058) | cleaved PARP positive nuclei fraction (C32) | cleaved PARP positive nuclei fraction (CBRC008) | cleaved PARP positive nuclei fraction (CBRC014) | cleaved PARP positive nuclei fraction (CBRC016) | cleaved PARP positive nuclei fraction (CBRC017)
O=C(Nc1cc(C(F)(F)F)cc(C(F)(F)F)c1)c1cc(Cl)ccc1O + C/C(O)=C(\C#N)C(=O)Nc1cc(Br)ccc1Br [LFM-A13] (first compound 0.016 µM, partner dose 2 µM) | 192% | 31.9% | 88.4% | 158% | 190% | 100% | 91.9% | 143%
NC(=O)c1ccc(N(C(N)=O)c2c(F)cccc2F)nc1-c1ccc(F)cc1F + O=C(Oc1ccc([N+](=O)[O-])cc1)N1CCC(C(O)(c2ccc3c(c2)OCO3)c2ccc3c(c2)OCO3)CC1 [JZL184] (first compound 0.4 µM, partner dose 1 µM) | 152% | 14.5% | 93.7% | 85.9% | 33.7% | 107% | 51.5% | 95.2%
Nc1ncn([C@H]2C[C@H](O)[C@@H](CO)O2)c(=O)n1 [decitabine] + C/C(O)=C(\C#N)C(=O)Nc1cc(Br)ccc1Br [LFM-A13] (first compound 0.1 µM, partner dose 2 µM) | 116% | 58.3% | 134% | 132% | 54.7% | 105% | 113% | 133%
Nc1nc(F)nc2c1ncn2[C@@H]1O[C@H](CO)[C@@H](O)[C@@H]1O [fludarabine] + C/C(O)=C(\C#N)C(=O)Nc1cc(Br)ccc1Br [LFM-A13] (first compound 0.2 µM, partner dose 2 µM) | 2020% | 38.5% | 43.7% | 157% | 112% | 114% | 108% | 77.7%
C=C(c1ccc(C(=O)O)cc1)c1cc2c(cc1C)C(C)(C)CCC2(C)C [Bexarotene] + Cc1cc(SCc2sc(-c3ccc(C(F)(F)F)c(F)c3)nc2C)ccc1OCC(=O)O [GW0742] (first compound 2 µM, partner dose 2 µM) | 144% | 16.4% | 104% | 69.8% | 185% | 111% | 258% | 145%
Nc1ncn([C@H]2C[C@H](O)[C@@H](CO)O2)c(=O)n1 [decitabine] + Cc1cc(SCc2sc(-c3ccc(C(F)(F)F)c(F)c3)nc2C)ccc1OCC(=O)O [GW0742] (first compound 0.1 µM, partner dose 2 µM) | 148% | 10.9% | 151% | 41.1% | 93.3% | 95.3% | 86.9% | 78.9%
